Reference: patent US20260055173A1

Target: VEGF
Assay: VEGF binding assay (FIG. 1)

Binder	binding
Strain #48 VHH (VHH, not shown: a dimerising Fc or GST) VHH: EVQLLESGGGLVQPGGSLRLSCAASGFTFSTSTMSWYRQAPGKERELVSFITSAGATTYYADSVKGRFTMSRDNSKNTVYLQMNSLRAEDTAVYYCRALVTLWNVYWGQGTLVTVSS	binds
Strain #6 VHH (Fc fusion, not shown: a dimerising Fc or GST) QVQLQESGGGLVQPGGSLRLSCAASGFTFSTSTMSWYRQAPGKERELVAFITSAGATTNYADSVKDRFTMSRDNDKNTVYLQMNVLKPEDTAMYYCRALVTLWNVYWGQGTQVTVSS	binds

No constants are given. Whether binding was seen depends on the method and setting. A result given as binding can be weak or reduced; the word gives no strength.
